These results are taken from US11292776B2, “Small molecule inhibitors of fungal hyphae and biofilm formation” (University of Sharjah, priority 2019, dated 2022).

The structures appear in SMILES notation. ≈ marks a conversion by molar mass, not a printed value.

For orientation: MIC means the least concentration at which growth counts as inhibited.

The subject of the test is S. aureus. The test is described as follows: Antimicrobial activity / MIC against S. aureus. The format is cell-based, methicillin-resistant Staphylococcus aureus (MRSA) LAC300. The settings on record: Staphylococcus aureus, 24 h, read-out: MIC Bacteria S. aureus. The method, then:
Collections of bacterial and fungal strains were obtained from the laboratory of Dr. Ibrahim at Harbor-UCLA medical center, Torrance, Calif. The bacterial strains used in this study were the Gram-negative bacterium Escherichia coli and the Gram-Positive bacterium methicillin-resistant Staphylococcus aureus (MRSA) LAC300. All bacterial strains were cultured on sterile Luria-Bertani medium (LB). The fungal strain used in this study was C. albicans SC5314. C. albicans was inoculated into sterile yeast potato dextrose broth (YPD) and incubated for 24 h at 37° C. (This was used as an initial culture for all studies described), and incubated in two different media, Yeast Nitrogen Base (YNB) broth or Roswell Park Memorial Institute medium (RPMI-1640). […]
The antimicrobial activity of compounds SR1-8 on agar plates, liquid broth media and MIC were measured according to modified Clinical and Laboratory Standards Institute (CLSI). […] The inhibition zones (mm) were measured by determining the diameter of the clear area. Similarly, the activity in liquid media was measured by incubating the aforementioned concentrations of the compounds into LB broth media inoculated with 10^5 CFU/mL in 96-well microplates at 37° C. for 24 h. The turbidity representing the microbial growth was measured by microplate reader (DYNEX technologies) at OD600. […]

As to `CN[C@H](CC(C)C)C(=O)N[C@H]1C(=O)N[C@@H](CC(N)=O)C(=O)N[C@H]2C(=O)N[C@H]3C(=O)N[C@H](C(=O)N[C@H](C(=O)O)c4cc(O)cc(O)c4-c4cc3ccc4O)[C@H](O)c3ccc(c(Cl)c3)Oc3cc2cc(c3O[C@@H]2O[C@H](CO)[C@@H](O)[C@H](O)[C@H]2O[C@H]2C[C@](C)(N)[C@H](O)[C@H](C)O2)Oc2ccc(cc2Cl)[C@H]1O` [Vancomycin, reference compound], the minimum inhibitory concentration (MIC) was found to be 3 µg/mL (≈ 2.07 µM).
